Laboratory results as given in PubChem BioAssay AID196 (DTP/NCI, 2004).
The list shows only some results of the screen, not a fair sample: it is rich in T/C values a quarter to a half above the control, in often repeated tests (any T/C) and in doses without a T/C. Other doses and runs of a compound stand elsewhere. T/C: endpoint of the treated group in % of that of the vehicle group. Some doses have a count of surviving animals in place of a T/C: the source holds a T/C of zero for them, seemingly a mark for toxic or unscored doses. Some doses without a T/C left all or most animals alive at the check, yet need not have been tolerated: the source hardly ever lists a survival T/C far under the control, and the zero likely stands for such cases as well. Survivors were counted at the toxicity check, usually on the fifth day, unless a day is given; later deaths do not show. Schedules are NCI's codes, read here as Q, the interval in days (D) or hours (H), X, the number of doses. Some entries were tested several times; the values are given in rising order. Additions like (4×) give the number of equal values in this list. For survival time, the PubChem record calls one and a half times the control and up active, and a quarter to a half above the control has no call in these data; cut-offs in other NCI protocols can differ. Some T/C values carry the count of animals alive at the toxicity check (mostly the fifth day); without a count, all were alive then. *1 amine or outer side, *2 acyl side, *3 side chain or, on linkers, in order; H or OH if unused. Where a SMILES comes first, the peptide text is derived from it. Bridges are numbered along the chain shown (N, C = ends). Roman numbers before positions name the chains, in order. [ ]: non-standard residue; d: D form. Actinocin(9to1) = Cc1c2oc3c(C)ccc(C(=O)[*:1])c3nc-2c(C(=O)[*:2])c(N)c1=O; aThr = C[C@H](O)[C@H](N)C(=O)O; NMeV = CN[C@H](C(=O)O)C(C)C; Sar = CNCC(=O)O

System: BDF1 mice, intracerebral B16 melanoma, median survival T/C
Test: NCI In Vivo Anticancer Drug Screen. Data for tumor model B16 Melanoma (intracerebral) in B6D2F1 (BDF1) mice
Conditions: T/C endpoint: median survival time, higher T/C = longer survival
Protocol: The antitumor activity of compounds was measured in mice bearing transplantable tumors. Survival or tumor size were measured and the results are expressed as the measurement made in the treated group (T) divided by the measurement made in the vehicle treated control group (C). The tumor model used in this assay is B16 Melanoma (intracerebral) in B6D2F1 (BDF1) mice

[1] = dose: 512.0 mg/kg/injection, schedule: Q01DX009 (ip), vehicle: Klucel (hydroxypropylcellulose) (HPC)
[2] = dose: 40.0 micrograms/kg/injection, schedule: Q01DX009 (ip), vehicle: saline
[3] = dose: 3.0 mg/kg/injection, schedule: Q01DX009 (ip), vehicle: saline
[4] = dose: 8.0 mg/kg/injection, schedule: Q01DX009 (ip), vehicle: saline with Tween-80
[5] = dose: 16.0 mg/kg/injection, schedule: Q01DX009 (ip), vehicle: saline with Tween-80

## Nc1nncs1
dose: 256.0 mg/kg/injection, schedule: Q01DX005 (ip), vehicle: saline with Tween-80
  T/C: 125 % of control
dose: 512.0 mg/kg/injection, schedule: Q01DX005 (ip), vehicle: saline with Tween-80
  T/C: 132 % of control

## COCC(O)Cn1ccnc1[N+](=O)[O-] (stereo not drawn)
[1]
  survivor count: 10 of 10

## C[n+]1c2ccccc2nc2c(N)cc(N)cc21
dose: 4.0 mg/kg/injection, schedule: Q01DX005 (ip), vehicle: suspension in saline
  T/C: 142 % of control

## O=C1C(N2CC2)=C(N2CC2)C(=O)C(N2CC2)=C1N1CC1
dose: 10.0 micrograms/kg/injection, schedule: Q01DX009 (ip), vehicle: saline
  survivor count: 6 of 6
dose: 20.0 micrograms/kg/injection, schedule: Q01DX009 (ip), vehicle: saline
  survivor count: 6 of 6
[2]
  T/C: 129 % of control
  survivor count: 6 of 6
dose: 80.0 micrograms/kg/injection, schedule: Q01DX009 (ip), vehicle: saline
  survivor count: 6 of 6

## Cc1c2oc3c(C)ccc(C(=O)N[C@@H]4C(=O)N[C@H](C(C)C)C(=O)N5CCC[C@H]5C(=O)N(C)CC(=O)N(C)[C@@H](C(C)C)C(=O)O[C@H]4C)c3nc-2c(C(=O)N[C@@H]2C(=O)N[C@H](C(C)C)C(=O)N3CCC[C@H]3C(=O)N(C)CC(=O)N(C)[C@@H](C(C)C)C(=O)O[C@H]2C)c(N)c1=O (I: [aThr][dV]P[Sar][NMeV] / II: [aThr][dV]P[Sar][NMeV]; ester I:1-I:C, II:1-II:C; linker I:N-II:N via Actinocin(9to1))
dose: 0.1 mg/kg/injection, schedule: Q01DX009 (ip), vehicle: water
  survivor count: 8 of 10
dose: 0.2 mg/kg/injection, schedule: Q01DX009 (ip), vehicle: water
  survivor count: 10 of 10

## Cc1[nH]c(=O)[nH]c(=O)c1N(CCF)CCCl
dose: 64.0 mg/kg/injection, schedule: Q01DX009 (ip), vehicle: water
  survivor count: 0 of 6

## CC/C(=C(/CC)c1ccc(O)cc1)c1ccc(O)cc1
dose: 16.0 mg/kg/injection, schedule: Q01DX005 (ip), vehicle: saline with Tween-80
  survivor count: 10 of 10
[1]
  survivor count: 3 of 6

## CN(C)c1nc(N(C)C)nc(N(C)C)n1
dose: 200.0 mg/kg/injection, schedule: Q01DX005 (ip), vehicle: saline with Tween-80
  T/C: 130 % of control
dose: 400.0 mg/kg/injection, schedule: Q01DX005 (ip), vehicle: saline with Tween-80
  survivor count: 7 of 10
dose: 800.0 mg/kg/injection, schedule: Q01DX005 (ip), vehicle: saline with Tween-80
  survivor count: 1 of 10

## CC(=O)NNC(=O)c1ccccn1
dose: 200.0 mg/kg/injection, schedule: Q01DX005 (ip), vehicle: Klucel (hydroxypropylcellulose) (HPC)
  T/C: 132 % of control
dose: 400.0 mg/kg/injection, schedule: Q01DX005 (ip), vehicle: Klucel (hydroxypropylcellulose) (HPC)
  survivor count: 0 of 10
dose: 800.0 mg/kg/injection, schedule: Q01DX005 (ip), vehicle: Klucel (hydroxypropylcellulose) (HPC)
  survivor count: 0 of 10

## CC(=O)OC1COC(NC(=O)N(CCCl)N=O)C(OC(C)=O)C1OC(C)=O (stereo not drawn)
[3]
  T/C: 125 % of control
dose: 6.0 mg/kg/injection, schedule: Q01DX009 (ip), vehicle: saline
  T/C: 134 % of control

## c1ccc([C@H]2CN3CCSC3=N2)cc1
dose: 5.0 mg/kg/injection, schedule: Q01DX009 (ip), vehicle: saline
  survivor count: 10 of 10
dose: 40.0 mg/kg/injection, schedule: Q01DX009 (ip), vehicle: saline
  survivor count: 3 of 10 and 10 of 10
dose: 80.0 mg/kg/injection, schedule: Q01DX005 (ip), vehicle: saline
  survivor count: 0 of 10
dose: 80.0 mg/kg/injection, schedule: Q01DX009 (ip), vehicle: saline
  survivor count: 0 of 10

## COc1cccc2c1C(=O)c1c(O)c3c(c(O)c1C2=O)C[C@@](O)(/C(C)=N/NC(=O)c1ccccc1)C[C@@H]3OC1CC(N)C(O)C(C)O1 (stereo partly drawn)
dose: 1.0 mg/kg/injection, schedule: Q01DX009 (ip), vehicle: saline
  survivor count: 10 of 10
[4]
  survivor count: 10 of 10
dose: 8.0 mg/kg/injection, schedule: Q01DX009 (ip), vehicle: saline
  survivor count: 10 of 10
[5]
  survivor count: 10 of 10

## O=C1C(NCCO)=C(N2CC2)C(=O)C(NCCO)=C1N1CC1
dose: 1.5 mg/kg/injection, schedule: Q01DX009 (ip), vehicle: saline
  survivor count: 10 of 10
[3]
  survivor count: 10 of 10

## COc1ccc2c(c1O)-c1cccc3c1[C@@H](C2)N(CCCl)CC3
dose: 32.0 mg/kg/injection, schedule: Q01DX005 (ip), vehicle: saline
  survivor count: 8 of 10
dose: 64.0 mg/kg/injection, schedule: Q01DX005 (ip), vehicle: saline
  survivor count: 0 of 10
dose: 128.0 mg/kg/injection, schedule: Q01DX005 (ip), vehicle: saline
  survivor count: 0 of 10

## CN=S(=O)(OCCCCCOS(=O)(=NC)c1ccccc1)c1ccccc1 (stereo not drawn)
dose: 50.0 mg/kg/injection, schedule: Q01DX009 (ip), vehicle: saline with Tween-80
  survivor count: 10 of 10
dose: 100.0 mg/kg/injection, schedule: Q01DX009 (ip), vehicle: saline with Tween-80
  survivor count: 0 of 10

## CN(C)CC(=O)c1ccc(O)c(O)c1
dose: 100.0 mg/kg/injection, schedule: Q01DX005 (ip), vehicle: saline
  T/C: 125 % of control
dose: 400.0 mg/kg/injection, schedule: Q01DX005 (ip), vehicle: saline
  survivor count: 10 of 10

## CC(=O)OCC1C(=O)OCC1C(=O)N1Cc2cc3ccccc3nc2C1 (stereo not drawn)
[4]
  survivor count: 8 of 10
[5]
  survivor count: 5 of 10
dose: 32.0 mg/kg/injection, schedule: Q01DX009 (ip), vehicle: saline with Tween-80
  survivor count: 8 of 10
dose: 64.0 mg/kg/injection, schedule: Q01DX009 (ip), vehicle: saline with Tween-80
  survivor count: 10 of 10
dose: 128.0 mg/kg/injection, schedule: Q01DX009 (ip), vehicle: saline with Tween-80
  survivor count: 5 of 10

## CC[C@]1(O)C[C@H]2CN(CCc3c([nH]c4ccccc34)[C@@](C(=O)OC)(c3cc4c(cc3OC)N(C=O)[C@H]3[C@@](O)(C(=O)OC)[C@H](OC(C)=O)[C@]5(CC)C=CCN6CC[C@]43[C@@H]65)C2)C1
dose: 0.52 mg/kg/injection, schedule: Q01DX009 (ip), vehicle: saline
  survivor count: 10 of 10

## CNc1nc(N(C)C)nc(N(C)C)n1
dose: 25.0 mg/kg/injection, schedule: Q01DX009 (ip), vehicle: saline, evaluated on day 30
  T/C: 98 and 102 % of control
dose: 25.0 mg/kg/injection, schedule: Q01DX009 (ip), vehicle: saline, evaluated on day 60
  T/C: 100 and 105 % of control
dose: 50.0 mg/kg/injection, schedule: Q01DX009 (ip), vehicle: saline, evaluated on day 30
  T/C: 105 and 107 % of control
dose: 50.0 mg/kg/injection, schedule: Q01DX009 (ip), vehicle: saline, evaluated on day 60
  T/C: 99 and 100 % of control
dose: 100.0 mg/kg/injection, schedule: Q01DX009 (ip), vehicle: saline, evaluated on day 30
  T/C: 103 [9 of 10 alive] and 109 % of control
dose: 100.0 mg/kg/injection, schedule: Q01DX009 (ip), vehicle: saline, evaluated on day 60
  T/C: 102 % of control
dose: 100.0 mg/kg/injection, schedule: Q01DX009 (ip), vehicle: saline
  survivor count: 10 of 10
dose: 200.0 mg/kg/injection, schedule: Q01DX009 (ip), vehicle: saline
  survivor count: 9 of 10 (2×) and 10 of 10

## Cc1c(N)nc([C@H](CC(N)=O)NC[C@H](N)C(N)=O)nc1C(=O)N[C@H](C(=O)N[C@H](C)[C@@H](O)[C@H](C)C(=O)N[C@H](C(=O)NCCc1nc(-c2nc(C(=O)NCCC[S+](C)C)cs2)cs1)[C@@H](C)O)C(OC1OC(CO)C(O)C(O)C1OC1OC(CO)C(O)C(OC(N)=O)C1O)c1cnc[nH]1 (stereo partly drawn)
dose: 32.0 mg/kg/injection, schedule: Q01DX009 (ip), vehicle: saline
  survivor count: 8 of 10

## Cc1ncc(CNC(=O)N(CCCl)N=O)c(N)n1
dose: 50.0 mg/kg/injection, schedule: Q01DX009 (ip), vehicle: Klucel (hydroxypropylcellulose) (HPC)
  survivor count: 10 of 10
dose: 100.0 mg/kg/injection, schedule: Q01DX009 (ip), vehicle: Klucel (hydroxypropylcellulose) (HPC)
  survivor count: 9 of 10
dose: 200.0 mg/kg/injection, schedule: Q01DX009 (ip), vehicle: Klucel (hydroxypropylcellulose) (HPC)
  survivor count: 3 of 10
dose: 400.0 mg/kg/injection, schedule: Q01DX009 (ip), vehicle: Klucel (hydroxypropylcellulose) (HPC)
  survivor count: 0 of 10
